Laboratory results as given in publication PMC7101364, “The biofilm-associated surface protein Esp of Enterococcus faecalis forms amyloid-like fibers” (NPJ Biofilms and Microbiomes, 2020).
No constants are given. Whether binding was seen depends on the method and setting.

Assays:
[1] = biological target: recombinant Esp_N domain (N-terminal domain of the enterococcal surface protein Esp, amino acids 50-743) (Enterococcus faecalis (strain 11279)) (UniProt Q9Z4N7); experiment: static light scattering; 0.1 mg/ml rEsp_N, sample reverted from pH 4.2 to pH 7.0 in phosphate-citrate buffer; both purified
[2] = biological target: recombinant Esp_N domain (N-terminal domain of the enterococcal surface protein Esp, amino acids 50-743) (Enterococcus faecalis (strain 11279)) (UniProt Q9Z4N7); experiment: condition: only buffer exchanged from pH 4.2 to pH 7; visible aggregation in tubes (reversion assay); aggregates formed 24 h at 37 °C at pH 4.2; buffer exchanged to phosphate-citrate pH 7, overnight at 37 °C with shaking; both purified

B1: recombinant Esp_N domain (N-terminal domain of the enterococcal surface protein Esp, amino acids 50-743) (domain or fragment)
chain: QMGEGRLANYSASGNTFQENPGYTKNYNFSDLQFNPKAITGDVLQGNTIDFEVYGKHNIAASTANWEIRLQLDERLAQYVEKIQVDPKKGVGNSRRTFVRINDSLGRPTNIWKVNYIRANDGLFAGAETTDTQTAPNGVITFEKNLDEIFKEIGADNLKSDRLMYRIYLVSHQDDDKIVPGIESTGYFLTDQDDFYNKLDVSENNSDQFKHGSVNTKYEEANIQTKDGSGSTGANGAIILDHKLTKEKNFSYSTSAKGTPWYANYKIDERLVPYVSGIQMHMVQADKVAYNVAFESGKKVADLAIERREGHENYGMGSITDNDLTKLIDFANASPRPIVVRYVLQLTKPLDEILEEMKAADKIEENAPFGEDFIFDSWLSDTNKKLIQNTYGTGYYYLQDIDGDGNPDDKEESGDTNPYIGKPELEEVYDVDTTVKGKVFIHELAGTGHKAQLVDKEGTVLAEKTIAPNEKDGAPISDTVEFEFTGVDSSKLIAKDELKIQIVSPGFDKPEEGSTVIKESPKAVDKQTVVVGFKPDAKESIRNNKNLPEDAEYSWKTEPDTSNVTDSTKGIVTVKIGNRTFDVDVEFAVKASQAMENDATYVPITTTPETTIQSGKPTFDKPDVPLANDAFSVLDVYNKDFGNASVDANTGIVTFTPAKGVGESEPITGTIPIKIVYQDGSVGTTDLAVTVSKN
notes: Enterococcal surface protein Esp of Enterococcus faecalis, amplified from strain 11279; N-terminal domain, amino acids 50-743 of the 1873-residue protein; No cleavage of the tag is mentioned; also called N-terminus of Esp; not shown: His tag (from the vector pET46-Ek/LIC)
In the case of B1, the binding [1] is reported as “no binding (condition: buffer changed from pH 4.2 to pH 7)” and the binding [2] is reported as “no binding”.
